Consider one substance from paper PMC6231642.

Protein sequences, listed by entry. Tags and fused reporters are not part of them.
UniProt Q9NRD5: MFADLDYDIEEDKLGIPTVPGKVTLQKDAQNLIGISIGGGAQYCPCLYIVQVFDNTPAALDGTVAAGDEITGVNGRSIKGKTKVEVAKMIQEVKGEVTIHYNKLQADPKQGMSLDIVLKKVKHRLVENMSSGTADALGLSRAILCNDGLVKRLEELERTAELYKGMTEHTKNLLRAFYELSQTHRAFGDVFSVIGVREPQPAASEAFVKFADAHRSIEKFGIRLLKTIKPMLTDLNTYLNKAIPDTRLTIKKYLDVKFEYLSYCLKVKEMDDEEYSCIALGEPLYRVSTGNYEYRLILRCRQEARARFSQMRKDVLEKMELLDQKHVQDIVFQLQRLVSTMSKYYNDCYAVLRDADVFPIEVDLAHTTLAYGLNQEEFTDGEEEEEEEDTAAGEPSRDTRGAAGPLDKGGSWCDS
UniProt Q96QS3: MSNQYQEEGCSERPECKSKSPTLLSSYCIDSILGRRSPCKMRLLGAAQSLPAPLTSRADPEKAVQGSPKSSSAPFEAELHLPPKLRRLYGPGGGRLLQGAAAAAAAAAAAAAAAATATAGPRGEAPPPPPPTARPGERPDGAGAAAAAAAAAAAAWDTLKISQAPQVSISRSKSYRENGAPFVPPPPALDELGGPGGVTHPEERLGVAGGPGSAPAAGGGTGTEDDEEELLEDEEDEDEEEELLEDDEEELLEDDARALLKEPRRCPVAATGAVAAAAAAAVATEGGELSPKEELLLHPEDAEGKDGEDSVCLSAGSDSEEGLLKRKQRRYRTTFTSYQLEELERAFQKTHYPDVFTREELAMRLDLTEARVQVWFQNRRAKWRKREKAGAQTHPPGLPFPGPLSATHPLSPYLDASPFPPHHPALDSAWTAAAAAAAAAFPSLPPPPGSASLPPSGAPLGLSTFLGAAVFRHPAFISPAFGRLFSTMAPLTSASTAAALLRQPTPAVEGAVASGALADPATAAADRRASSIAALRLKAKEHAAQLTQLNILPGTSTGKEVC

These are yes or no findings as the source states them, for the method shown. Binding seen in cells or lysates may run through a third protein. Some binding calls cover weakened binding; strength is not graded here.

This assay concerns the target V5-tagged PICK1 (Protein interacting with C kinase 1) (human) (UniProt Q9NRD5). The experiment in a line: co-IP; HEK293T cells co-transfected with Myc-ARX and V5-PICK1 or HA-PKC; lysed in extraction buffer 1 (120 mM NaCl, 50 mM Tris-HCl pH 8.0, 0.5% NP-40); IP with anti-V5 or anti-HA overnight at 4°C, protein A sepharose; wash 250 mM NaCl, 20 mM Tris-HCl pH 8.0, 1 mM EDTA, 0.5% NP-40; immunoblot with anti-Myc.

For “Myc-tagged full-length ARX (Aristaless-related homeobox protein) (from UniProt Q96QS3 1-562)”, the binding entry is listed as “binds”.
